What all share (test): enzyme reaction in vitro
Data set [1] deals with T1, NmeAIII D818R (Neisseria meningitidis Z2491).
T1 sequence (limits assumed): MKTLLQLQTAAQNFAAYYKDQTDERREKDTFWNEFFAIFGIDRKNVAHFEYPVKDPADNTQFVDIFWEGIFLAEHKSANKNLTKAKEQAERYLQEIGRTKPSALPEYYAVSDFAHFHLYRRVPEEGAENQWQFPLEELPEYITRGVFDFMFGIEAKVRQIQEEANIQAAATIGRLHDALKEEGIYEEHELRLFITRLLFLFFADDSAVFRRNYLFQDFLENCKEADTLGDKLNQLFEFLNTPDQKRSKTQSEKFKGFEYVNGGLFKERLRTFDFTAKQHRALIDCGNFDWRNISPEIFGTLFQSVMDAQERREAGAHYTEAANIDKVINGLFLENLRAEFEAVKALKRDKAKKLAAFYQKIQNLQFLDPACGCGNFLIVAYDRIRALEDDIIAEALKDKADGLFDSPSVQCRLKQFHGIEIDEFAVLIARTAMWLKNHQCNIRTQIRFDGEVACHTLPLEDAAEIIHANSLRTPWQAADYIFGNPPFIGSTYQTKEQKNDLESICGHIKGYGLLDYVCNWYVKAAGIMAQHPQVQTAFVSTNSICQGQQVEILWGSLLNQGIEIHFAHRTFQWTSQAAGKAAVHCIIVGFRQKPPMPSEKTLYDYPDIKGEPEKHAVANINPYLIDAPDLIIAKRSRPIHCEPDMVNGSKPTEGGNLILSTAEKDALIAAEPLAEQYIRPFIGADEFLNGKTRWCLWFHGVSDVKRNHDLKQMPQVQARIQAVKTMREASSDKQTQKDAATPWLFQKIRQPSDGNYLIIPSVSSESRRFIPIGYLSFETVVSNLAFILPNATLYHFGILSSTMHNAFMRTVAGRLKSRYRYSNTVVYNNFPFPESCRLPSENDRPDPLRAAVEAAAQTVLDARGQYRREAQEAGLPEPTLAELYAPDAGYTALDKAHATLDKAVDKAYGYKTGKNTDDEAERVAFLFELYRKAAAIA
Particulars: no endonuclease activity, protein in a lysate after overexpression.

The subject of data set [2] is T2, NmeAIII K816E+D818R (Neisseria meningitidis Z2491).
T2 sequence (limits assumed): T1 sequence (limits assumed) with K816E
Particulars: protein in a lysate after overexpression.

The subject of data set [3] is T3, NlaCI (Neisseria lactamica ST640).
T3 sequence (limits assumed): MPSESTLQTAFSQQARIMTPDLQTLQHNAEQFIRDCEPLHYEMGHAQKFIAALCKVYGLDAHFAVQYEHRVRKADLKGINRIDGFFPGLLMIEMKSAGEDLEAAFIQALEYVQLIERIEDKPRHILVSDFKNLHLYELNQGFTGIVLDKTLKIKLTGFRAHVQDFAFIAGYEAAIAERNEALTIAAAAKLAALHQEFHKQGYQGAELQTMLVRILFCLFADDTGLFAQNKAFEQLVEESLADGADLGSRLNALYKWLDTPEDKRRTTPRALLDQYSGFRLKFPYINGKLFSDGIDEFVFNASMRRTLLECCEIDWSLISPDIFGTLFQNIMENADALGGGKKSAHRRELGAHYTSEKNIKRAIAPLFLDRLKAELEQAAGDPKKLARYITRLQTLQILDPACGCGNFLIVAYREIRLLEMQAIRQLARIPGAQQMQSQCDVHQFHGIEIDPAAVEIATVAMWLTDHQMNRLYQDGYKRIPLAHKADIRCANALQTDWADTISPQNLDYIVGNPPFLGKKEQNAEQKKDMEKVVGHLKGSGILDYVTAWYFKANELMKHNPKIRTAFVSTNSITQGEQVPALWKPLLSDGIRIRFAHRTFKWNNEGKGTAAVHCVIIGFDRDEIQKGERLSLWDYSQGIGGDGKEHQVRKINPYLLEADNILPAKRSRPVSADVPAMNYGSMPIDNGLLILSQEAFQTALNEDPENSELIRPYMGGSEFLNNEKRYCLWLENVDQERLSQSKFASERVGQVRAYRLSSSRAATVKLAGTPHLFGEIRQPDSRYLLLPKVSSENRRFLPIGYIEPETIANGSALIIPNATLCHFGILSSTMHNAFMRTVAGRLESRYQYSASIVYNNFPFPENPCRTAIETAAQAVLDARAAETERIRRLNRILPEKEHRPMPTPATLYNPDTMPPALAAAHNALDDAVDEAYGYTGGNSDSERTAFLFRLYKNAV
Particulars: cuts N19/N17 or N20/N18; protein in a lysate after overexpression.

In data set [4] the test system is T4, CstMI (Corynebacterium striatum).
T4 sequence (limits assumed): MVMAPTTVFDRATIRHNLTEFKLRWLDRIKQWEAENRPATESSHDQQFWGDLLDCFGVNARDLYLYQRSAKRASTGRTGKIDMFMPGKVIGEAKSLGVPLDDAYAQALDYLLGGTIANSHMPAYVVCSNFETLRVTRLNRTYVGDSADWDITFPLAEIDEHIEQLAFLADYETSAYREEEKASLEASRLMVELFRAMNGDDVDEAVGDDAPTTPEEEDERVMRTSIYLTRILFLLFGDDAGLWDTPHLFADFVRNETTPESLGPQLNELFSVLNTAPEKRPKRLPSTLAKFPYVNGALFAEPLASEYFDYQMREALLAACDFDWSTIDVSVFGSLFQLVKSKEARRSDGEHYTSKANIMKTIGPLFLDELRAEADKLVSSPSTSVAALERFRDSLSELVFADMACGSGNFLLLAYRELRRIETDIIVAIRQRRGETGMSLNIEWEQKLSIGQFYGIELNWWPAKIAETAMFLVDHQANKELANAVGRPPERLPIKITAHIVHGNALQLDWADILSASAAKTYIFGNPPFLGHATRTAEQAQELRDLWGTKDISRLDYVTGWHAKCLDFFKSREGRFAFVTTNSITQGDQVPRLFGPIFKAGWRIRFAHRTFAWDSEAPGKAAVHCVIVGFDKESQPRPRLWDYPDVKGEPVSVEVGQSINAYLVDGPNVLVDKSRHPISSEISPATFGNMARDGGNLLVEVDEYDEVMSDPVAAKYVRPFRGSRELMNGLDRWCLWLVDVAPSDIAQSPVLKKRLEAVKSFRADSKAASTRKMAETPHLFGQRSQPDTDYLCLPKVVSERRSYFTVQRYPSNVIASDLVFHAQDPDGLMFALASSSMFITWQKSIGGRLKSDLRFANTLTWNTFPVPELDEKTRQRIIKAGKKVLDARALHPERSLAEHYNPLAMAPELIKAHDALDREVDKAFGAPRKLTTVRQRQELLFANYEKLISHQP
Particulars: CITED; cuts N20/N18; protein in a lysate after overexpression.

Substitutions are numbered along the chain they refer to. Protein sequences can lack the tags named with them. For part of these data: The exact form of at least one protein or probe is not confirmed. For part of these data: A negative result means that nothing was seen under these conditions.

As for “GCCGAC (double strand) [NmeAIII 6C site]”, the “activity on this sequence” value in data set [1] (variant of NmeAIII site) is “not active”; in data set [2] (NEBuffer 4, crude extract, variant of NmeAIII site), “active”. As to CATCAC (double strand) [NlaCI site], the “activity on this sequence” value in data set [3] is listed as “active”.

AAGGAG (double strand) [CstMI site]: the “activity on this sequence” value in data set [4] is “active”. In the case of GCCGAG (double strand) [NmeAIII site], the “activity on this sequence” value in data set [1] and in data set [2] (wild-type sites not matched by cutting) was “not active” throughout.

The record behind these values is patent publication US20100304462.
